Laboratory results: the supplement of paper PMC10849652
Some of the results follow.

By UniProt entry, the sequences of proteins in these tests, tags left out. Where a name states a change or a piece, a line headed by the entry shows the natural chain unless it says otherwise.
UniProt P02585, whole entry, looked up: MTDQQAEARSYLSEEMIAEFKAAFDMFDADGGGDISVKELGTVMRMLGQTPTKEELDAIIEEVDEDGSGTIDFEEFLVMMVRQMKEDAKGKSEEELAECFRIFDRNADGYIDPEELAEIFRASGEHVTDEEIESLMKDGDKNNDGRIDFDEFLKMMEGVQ
UniProt Q96A57: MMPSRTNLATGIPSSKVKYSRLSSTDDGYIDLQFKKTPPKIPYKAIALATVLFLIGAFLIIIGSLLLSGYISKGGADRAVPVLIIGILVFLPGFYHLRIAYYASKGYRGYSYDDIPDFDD
UniProt Q15785: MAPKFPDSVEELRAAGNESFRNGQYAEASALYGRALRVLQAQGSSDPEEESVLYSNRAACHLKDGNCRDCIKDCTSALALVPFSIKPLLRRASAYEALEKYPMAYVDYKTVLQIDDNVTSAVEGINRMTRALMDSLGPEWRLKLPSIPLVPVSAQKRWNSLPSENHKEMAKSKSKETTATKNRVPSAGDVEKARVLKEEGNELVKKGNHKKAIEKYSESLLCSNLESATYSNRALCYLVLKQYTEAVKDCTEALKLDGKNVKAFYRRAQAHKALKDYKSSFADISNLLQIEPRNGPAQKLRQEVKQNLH
UniProt Q96B49: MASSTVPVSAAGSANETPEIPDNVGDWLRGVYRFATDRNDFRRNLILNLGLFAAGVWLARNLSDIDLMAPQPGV
UniProt O94826, whole entry, looked up: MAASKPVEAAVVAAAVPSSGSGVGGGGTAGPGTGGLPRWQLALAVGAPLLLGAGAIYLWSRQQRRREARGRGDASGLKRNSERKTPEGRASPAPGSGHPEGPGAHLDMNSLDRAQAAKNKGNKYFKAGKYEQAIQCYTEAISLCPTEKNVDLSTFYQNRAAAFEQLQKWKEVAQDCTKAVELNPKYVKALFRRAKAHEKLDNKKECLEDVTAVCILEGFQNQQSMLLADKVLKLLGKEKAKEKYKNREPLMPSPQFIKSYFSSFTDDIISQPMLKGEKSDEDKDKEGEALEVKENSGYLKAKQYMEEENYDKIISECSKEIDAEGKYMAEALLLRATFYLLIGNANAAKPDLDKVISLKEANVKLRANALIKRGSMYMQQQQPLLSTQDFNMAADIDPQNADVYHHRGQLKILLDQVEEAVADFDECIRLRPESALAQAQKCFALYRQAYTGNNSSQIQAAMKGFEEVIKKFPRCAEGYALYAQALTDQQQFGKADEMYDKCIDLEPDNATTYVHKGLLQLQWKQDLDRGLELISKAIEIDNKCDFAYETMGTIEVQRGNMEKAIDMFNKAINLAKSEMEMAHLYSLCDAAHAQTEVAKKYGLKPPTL
UniProt Q5T4D3: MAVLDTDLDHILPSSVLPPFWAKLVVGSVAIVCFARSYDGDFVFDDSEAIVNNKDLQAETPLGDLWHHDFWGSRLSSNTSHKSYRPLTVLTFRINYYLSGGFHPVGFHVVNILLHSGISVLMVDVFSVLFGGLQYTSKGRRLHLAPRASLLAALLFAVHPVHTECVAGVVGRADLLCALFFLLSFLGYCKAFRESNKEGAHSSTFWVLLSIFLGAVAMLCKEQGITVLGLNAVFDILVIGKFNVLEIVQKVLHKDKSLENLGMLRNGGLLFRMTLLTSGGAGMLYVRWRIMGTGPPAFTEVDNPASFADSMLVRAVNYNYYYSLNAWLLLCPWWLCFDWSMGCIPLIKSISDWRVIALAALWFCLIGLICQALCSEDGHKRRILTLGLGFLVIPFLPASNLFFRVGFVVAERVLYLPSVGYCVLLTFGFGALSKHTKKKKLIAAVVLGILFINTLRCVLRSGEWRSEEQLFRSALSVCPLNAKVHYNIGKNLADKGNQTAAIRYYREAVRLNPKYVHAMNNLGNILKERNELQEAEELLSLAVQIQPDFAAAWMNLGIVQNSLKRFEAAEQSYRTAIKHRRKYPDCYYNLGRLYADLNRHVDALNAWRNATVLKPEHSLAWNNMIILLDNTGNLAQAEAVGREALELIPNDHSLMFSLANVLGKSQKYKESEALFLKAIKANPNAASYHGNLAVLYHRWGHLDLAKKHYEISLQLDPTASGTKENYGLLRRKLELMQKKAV
UniProt Q9BRR3: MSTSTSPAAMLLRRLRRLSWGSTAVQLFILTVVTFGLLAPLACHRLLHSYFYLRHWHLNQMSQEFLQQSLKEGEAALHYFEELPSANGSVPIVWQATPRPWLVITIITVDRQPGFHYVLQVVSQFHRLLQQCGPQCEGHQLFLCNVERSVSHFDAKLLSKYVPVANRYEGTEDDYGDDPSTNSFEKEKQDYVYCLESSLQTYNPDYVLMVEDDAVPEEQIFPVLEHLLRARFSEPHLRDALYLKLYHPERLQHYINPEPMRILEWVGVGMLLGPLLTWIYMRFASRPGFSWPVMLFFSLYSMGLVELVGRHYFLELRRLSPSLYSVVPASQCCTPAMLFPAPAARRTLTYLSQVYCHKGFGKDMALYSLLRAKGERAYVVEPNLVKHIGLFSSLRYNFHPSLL
UniProt Q2T9K0: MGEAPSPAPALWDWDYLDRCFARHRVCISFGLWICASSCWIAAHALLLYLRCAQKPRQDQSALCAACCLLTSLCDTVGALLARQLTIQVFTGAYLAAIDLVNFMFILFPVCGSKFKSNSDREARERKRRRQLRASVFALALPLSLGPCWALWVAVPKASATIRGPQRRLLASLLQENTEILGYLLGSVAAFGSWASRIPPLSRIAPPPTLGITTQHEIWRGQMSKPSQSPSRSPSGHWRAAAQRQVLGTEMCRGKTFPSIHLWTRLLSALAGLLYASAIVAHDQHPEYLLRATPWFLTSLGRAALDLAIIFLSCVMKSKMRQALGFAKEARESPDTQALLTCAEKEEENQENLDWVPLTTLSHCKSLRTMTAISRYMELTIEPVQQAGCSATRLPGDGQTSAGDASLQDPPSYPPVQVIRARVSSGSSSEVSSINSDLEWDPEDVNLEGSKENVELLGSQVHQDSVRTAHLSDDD
UniProt Q96Q45: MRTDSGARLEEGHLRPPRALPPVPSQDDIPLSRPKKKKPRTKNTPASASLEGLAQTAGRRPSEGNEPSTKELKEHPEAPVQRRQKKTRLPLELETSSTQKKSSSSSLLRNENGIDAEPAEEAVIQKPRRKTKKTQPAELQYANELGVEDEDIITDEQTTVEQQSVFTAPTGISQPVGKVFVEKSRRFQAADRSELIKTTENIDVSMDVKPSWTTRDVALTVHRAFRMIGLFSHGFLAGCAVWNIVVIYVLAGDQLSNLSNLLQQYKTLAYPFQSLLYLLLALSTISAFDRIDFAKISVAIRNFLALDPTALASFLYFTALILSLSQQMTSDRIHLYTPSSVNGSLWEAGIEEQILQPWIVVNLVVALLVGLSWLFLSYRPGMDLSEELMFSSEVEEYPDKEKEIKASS
UniProt Q07912: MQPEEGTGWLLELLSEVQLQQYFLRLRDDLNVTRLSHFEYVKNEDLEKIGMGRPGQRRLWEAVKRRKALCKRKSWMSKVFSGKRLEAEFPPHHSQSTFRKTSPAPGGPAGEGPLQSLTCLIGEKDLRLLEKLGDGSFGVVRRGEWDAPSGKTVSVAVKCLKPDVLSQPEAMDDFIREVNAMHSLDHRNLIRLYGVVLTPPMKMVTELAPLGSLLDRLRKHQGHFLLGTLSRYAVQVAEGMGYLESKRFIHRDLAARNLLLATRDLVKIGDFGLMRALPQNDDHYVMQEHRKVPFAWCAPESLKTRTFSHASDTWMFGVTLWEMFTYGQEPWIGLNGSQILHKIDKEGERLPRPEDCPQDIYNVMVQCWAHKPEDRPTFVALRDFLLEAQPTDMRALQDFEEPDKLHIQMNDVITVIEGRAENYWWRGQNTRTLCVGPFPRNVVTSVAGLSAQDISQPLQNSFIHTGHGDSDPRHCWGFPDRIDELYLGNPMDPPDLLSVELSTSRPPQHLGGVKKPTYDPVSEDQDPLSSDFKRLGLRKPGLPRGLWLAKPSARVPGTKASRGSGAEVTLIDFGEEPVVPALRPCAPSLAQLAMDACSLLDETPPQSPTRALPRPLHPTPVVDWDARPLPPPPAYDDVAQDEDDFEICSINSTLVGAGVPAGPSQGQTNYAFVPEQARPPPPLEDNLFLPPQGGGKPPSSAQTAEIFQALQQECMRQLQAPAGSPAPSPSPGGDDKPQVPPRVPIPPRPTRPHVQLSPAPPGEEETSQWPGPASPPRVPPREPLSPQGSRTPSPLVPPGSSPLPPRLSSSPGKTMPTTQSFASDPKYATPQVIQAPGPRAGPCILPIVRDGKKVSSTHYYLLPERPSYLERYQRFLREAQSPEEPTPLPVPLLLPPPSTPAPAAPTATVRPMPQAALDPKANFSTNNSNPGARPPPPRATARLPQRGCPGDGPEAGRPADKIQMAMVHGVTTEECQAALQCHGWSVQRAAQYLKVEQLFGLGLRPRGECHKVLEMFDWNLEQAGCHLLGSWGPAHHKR
UniProt Q13829: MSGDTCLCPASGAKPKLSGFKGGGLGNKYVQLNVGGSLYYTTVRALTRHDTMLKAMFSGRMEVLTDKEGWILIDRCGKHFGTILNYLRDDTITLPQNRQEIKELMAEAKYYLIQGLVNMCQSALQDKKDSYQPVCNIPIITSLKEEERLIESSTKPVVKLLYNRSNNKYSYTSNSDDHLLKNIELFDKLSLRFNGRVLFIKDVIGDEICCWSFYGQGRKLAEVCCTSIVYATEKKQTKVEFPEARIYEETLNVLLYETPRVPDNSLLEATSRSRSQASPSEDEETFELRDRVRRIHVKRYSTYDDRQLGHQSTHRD
UniProt P42167: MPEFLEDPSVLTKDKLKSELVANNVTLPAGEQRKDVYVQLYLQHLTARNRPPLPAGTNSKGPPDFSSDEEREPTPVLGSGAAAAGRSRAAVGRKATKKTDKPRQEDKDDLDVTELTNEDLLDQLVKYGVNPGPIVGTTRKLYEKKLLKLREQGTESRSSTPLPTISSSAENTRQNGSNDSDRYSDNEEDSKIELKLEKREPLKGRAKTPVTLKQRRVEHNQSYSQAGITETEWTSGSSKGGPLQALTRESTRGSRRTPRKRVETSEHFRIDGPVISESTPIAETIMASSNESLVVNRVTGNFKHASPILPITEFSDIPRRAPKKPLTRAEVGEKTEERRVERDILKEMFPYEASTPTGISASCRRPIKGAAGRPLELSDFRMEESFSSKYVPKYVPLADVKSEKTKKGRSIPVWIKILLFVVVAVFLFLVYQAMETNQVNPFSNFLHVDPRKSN
UniProt Q96HH6: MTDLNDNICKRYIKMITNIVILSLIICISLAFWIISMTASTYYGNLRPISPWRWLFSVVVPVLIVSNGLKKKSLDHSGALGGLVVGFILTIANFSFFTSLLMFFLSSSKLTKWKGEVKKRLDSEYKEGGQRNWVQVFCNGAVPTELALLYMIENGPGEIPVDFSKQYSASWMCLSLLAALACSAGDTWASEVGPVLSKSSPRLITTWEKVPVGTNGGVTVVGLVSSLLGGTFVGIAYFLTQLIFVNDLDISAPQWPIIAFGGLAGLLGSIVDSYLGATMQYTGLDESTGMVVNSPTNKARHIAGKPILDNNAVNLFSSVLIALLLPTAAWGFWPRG
UniProt Q9BXS4: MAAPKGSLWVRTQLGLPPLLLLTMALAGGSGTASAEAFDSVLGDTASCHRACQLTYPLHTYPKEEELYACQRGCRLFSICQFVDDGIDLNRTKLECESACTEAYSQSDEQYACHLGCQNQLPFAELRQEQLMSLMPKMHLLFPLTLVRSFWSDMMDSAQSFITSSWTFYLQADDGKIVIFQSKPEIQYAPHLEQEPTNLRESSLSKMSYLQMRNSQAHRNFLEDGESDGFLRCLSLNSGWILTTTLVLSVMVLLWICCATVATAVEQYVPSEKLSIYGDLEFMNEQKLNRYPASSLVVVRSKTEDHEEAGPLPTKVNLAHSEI
UniProt Q96SK2: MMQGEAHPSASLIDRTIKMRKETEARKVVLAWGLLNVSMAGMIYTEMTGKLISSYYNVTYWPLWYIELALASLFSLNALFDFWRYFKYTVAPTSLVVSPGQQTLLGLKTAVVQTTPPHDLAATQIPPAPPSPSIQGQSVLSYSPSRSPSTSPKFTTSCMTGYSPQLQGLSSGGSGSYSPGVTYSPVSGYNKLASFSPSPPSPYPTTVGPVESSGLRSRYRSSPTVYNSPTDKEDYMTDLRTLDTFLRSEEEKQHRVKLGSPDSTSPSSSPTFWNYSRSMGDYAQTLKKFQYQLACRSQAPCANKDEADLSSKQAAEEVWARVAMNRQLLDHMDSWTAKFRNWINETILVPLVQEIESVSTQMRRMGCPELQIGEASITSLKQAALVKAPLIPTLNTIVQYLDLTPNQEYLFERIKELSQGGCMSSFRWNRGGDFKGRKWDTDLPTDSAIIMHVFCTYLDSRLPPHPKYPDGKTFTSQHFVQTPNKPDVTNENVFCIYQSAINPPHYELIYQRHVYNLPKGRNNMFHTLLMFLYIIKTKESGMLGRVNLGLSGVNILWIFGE
UniProt Q9NWH2: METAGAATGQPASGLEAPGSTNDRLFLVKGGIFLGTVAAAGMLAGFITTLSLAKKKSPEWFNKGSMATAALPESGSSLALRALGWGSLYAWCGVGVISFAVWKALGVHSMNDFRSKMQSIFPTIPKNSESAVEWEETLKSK
UniProt Q8N2U0: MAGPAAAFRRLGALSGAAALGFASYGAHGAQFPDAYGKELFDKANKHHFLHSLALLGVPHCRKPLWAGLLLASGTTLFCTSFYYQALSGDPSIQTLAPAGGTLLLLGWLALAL

Assays:
Test in all cases: log2 fold change, soluble protein after heating vs DMSO (PISA); higher = thermal stabilisation; K562 lysate, 10 uM; active = over 0.2 and 3.5 SD of the protein, either way, in both replicates (recomputed)
erlotinib = compound: C#Cc1cccc(Nc2ncnc3cc(OCCOC)c(OCCOC)cc23)c1 [erlotinib]
In short: (§1)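 K562 pellets were dounce-homogenised in PBS pH 7.4 containing 1 mM MgCl2, and the crude extract, at 1 mg/mL protein, was exposed to 10 μM compound for 30 min. Aliquots were heated for 3 min across 48°C-58°C, pooled, brought to 0.5% NP-40 at 4°C and spun at 21,000xg for 90 min, with the supernatant taken as soluble protein. TMTpro 16plex LC-MS/MS with equalised channel sums quantified that protein. Values are log-two fold changes in thermal stability relative to solvent controls, taken from duplicates.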

[1] = compound: C/C(=N\NC(=O)C1=CC(=CC=C1)S(=O)(=O)N2CCOCC2)/C3=C(C=CC(=C3)Cl)O
In short: as §1

[2] = compound: C1=CC(=CC=C1C2=NC3=C(N2)C=C(C=C3)C(=O)N)OC4=CC=C(C=C4)Cl
In short: as §1

[3] = compound: C1=CC2=C(C=CC(=C2)/C=C\3/C(=O)NC(=NCC4=CC=CS4)S3)N=C1
In short: as §1

[4] = compound: C1=CC=C(C=C1)C2=NC(=C(N2)C3=CC=NC=C3)C4=CC(=C(C=C4)Cl)O
In short: as §1

[5] = compound: C1=CC=C2C(=C1)C3=NNC4=CC=CC(=C43)C2=O
In short: as §1

[6] = compound: C1CCN(C1)C(=O)NC2=CC=CC(=C2)NC3=NC=C(C(=N3)NCCC4=CN=CN4)Br
In short: as §1

[7] = compound: C1CN(CCC1(CC2=CC=C(C=C2)Cl)N)C3=NC=NC4=C3C=CN4
In short: as §1

IRAK-1-4 Inhibitor I = compound: C1COCCN1CCN2C3=CC=CC=C3N=C2NC(=O)C4=CC(=CC=C4)[N+](=O)[O-] [IRAK-1-4 Inhibitor I]
In short: as §1

[8] = compound: C1=CC2=NC=CN=C2C=C1/C=C/3\C(=O)NC(=O)S3
In short: as §1

Measured: log2 fold change

TNNC2 (UniProt P02585)
inactive: erlotinib -0.048 | [1] 0.032 | [2] 0.044 | [3] 0.004 | [4] -0.043 | [5] 0.031 | [6] 0.061 | [7] 0.071 | IRAK-1-4 Inhibitor I -0.016

TMEM230 isoform 2 (UniProt Q96A57)
inactive: erlotinib 0.015 | [1] 0.013 | [2] -0.055 | [3] 0.057 | [8] -0.179 | [4] -0.211 | [5] -0.012 | [6] -0.011 | [7] 0.04 | IRAK-1-4 Inhibitor I 0.032

TOMM34 (UniProt Q15785)
inactive: erlotinib -0.02 | [1] -0.049 | [2] 0.009 | [3] -0.001 | [8] 0.006 | [4] -0.009 | [5] -0.023 | [6] 0.024 | [7] -0.018 | IRAK-1-4 Inhibitor I 0.017

TMEM94 isoform 2 (UniProt Q12767)
inactive: erlotinib 0.243 | [1] 0.098 | [2] -0.017 | [3] -0.005 | [8] -0.005 | [4] -0.225 | [5] -0.215 | [6] -0.036 | [7] 0.14 | IRAK-1-4 Inhibitor I 0.16

TOR1AIP1 (UniProt Q5JTV8)
inactive: erlotinib -0.205 | [1] 0.114 | [2] 0.093 | [3] -0.358 | [8] 0.019 | [5] 0.089

TNRC6A (UniProt Q8NDV7)
inactive: erlotinib -0.029 | [1] 0.078 | [2] 0.077 | [3] -0.097 | [8] 0.088 | [5] -0.021 | [6] -0.024 | [7] 0.127

TOMM6 (UniProt Q96B49)
inactive: erlotinib -0.092 | [1] -0.049 | [2] 0.036 | [3] -0.046 | [8] -0.077 | [5] 0.005 | [6] -0.108 | [7] -0.015

TOMM70 (UniProt O94826)
inactive: erlotinib 0.032 | [1] 0.033 | [2] 0.044 | [3] 0.028 | [8] 0.011 | [4] 0.01 | [5] -0.032 | [6] 0.014 | [7] 0.035 | IRAK-1-4 Inhibitor I 0.002

TMOD2 (UniProt Q9NZR1)
inactive: erlotinib -0.057 | [1] 0.042 | [2] 0 | [3] -0.007 | [8] -0.024 | [4] 0.004 | [5] -0.058 | [6] -0.026 | [7] -0.018 | IRAK-1-4 Inhibitor I 0.054

TMTC4 isoform 3 (UniProt Q5T4D3)
inactive: [4] 0.09 | [6] 0.101 | [7] -0.045 | IRAK-1-4 Inhibitor I -0.076

TNFAIP3 (UniProt P21580)
inactive: erlotinib 0.018 | [2] 0.024 | [8] 0.03 | [4] -0.049 | [6] -0.296 | [7] 0.09 | IRAK-1-4 Inhibitor I 0.047

TMEM35B (UniProt Q8NCS4)
inactive: erlotinib -0.097 | [1] 0.041 | [2] -0.029 | [3] -0.044 | [4] -0.007 | [5] -0.027 | IRAK-1-4 Inhibitor I -0.071

TNIK isoform 5 (UniProt Q9UKE5)
inactive: [8] 0.008 | [4] 0.134 | IRAK-1-4 Inhibitor I -0.038

TNRC6C isoform 2 (UniProt Q9HCJ0)
inactive: erlotinib -0.016 | [2] -0.011 | [8] -0.008 | [4] -0.024 | [6] -0.197 | [7] 0.225 | IRAK-1-4 Inhibitor I -0.011

TMEM246 (UniProt Q9BRR3)
inactive: erlotinib 0.147 | [2] -0.005 | [8] -0.154 | [4] 0.052 | IRAK-1-4 Inhibitor I 0.072

TNS1 (UniProt Q9HBL0)
inactive: [8] 0.054 | [6] 0.186 | [7] -0.031

TPBG (UniProt Q13641)
inactive: erlotinib 0.004 | [1] 0.087 | [2] -0.046 | [3] -0.074 | [5] -0.08 | [6] -0.034 | [7] 0.092

TMEM44 (UniProt Q2T9K0)
inactive: [8] 0.019 | [6] 0.055 | [7] 0.064

TMEM237 isoform 3 (UniProt Q96Q45)
inactive: [1] -0.008 | [3] -0.051 | [4] 0.17 | [5] -0.084 | IRAK-1-4 Inhibitor I 0.035

2 successive entries already listed, for reference:
TMEM230 isoform 2 (UniProt Q96A57)
inactive: erlotinib 0.015 | [1] 0.013 | [2] -0.055 | [3] 0.057 | [8] -0.179 | [4] -0.211 | [5] -0.012 | [6] -0.011 | [7] 0.04 | IRAK-1-4 Inhibitor I 0.032

TOMM34 (UniProt Q15785)
inactive: erlotinib -0.02 | [1] -0.049 | [2] 0.009 | [3] -0.001 | [8] 0.006 | [4] -0.009 | [5] -0.023 | [6] 0.024 | [7] -0.018 | IRAK-1-4 Inhibitor I 0.017

(continued)

TNK2 isoform 3 (UniProt Q07912)
inactive: [8] 0.03 | [4] -0.117 | IRAK-1-4 Inhibitor I 0.454

TMEM267 (UniProt Q0VDI3)
inactive: erlotinib 0.08 | [2] 0.046 | [8] -0.042 | [4] -0.088 | IRAK-1-4 Inhibitor I -0.013

TMEM222 (UniProt Q9H0R3)
inactive: erlotinib 0.149 | [2] -0.015 | [8] -0.098 | [4] -0.104 | [6] 0.014 | [7] -0.034 | IRAK-1-4 Inhibitor I 0.126

TMEM41B (UniProt Q5BJD5)
inactive: erlotinib -0.054 | [2] -0.016 | [8] -0.074 | [4] -0.113 | [6] 0.013 | [7] 0.037 | IRAK-1-4 Inhibitor I -0.02

TMEM98 (UniProt Q9Y2Y6)
inactive: [4] 0.111 | IRAK-1-4 Inhibitor I -0.063

TPRA1 (UniProt Q86W33)
inactive: erlotinib 0.115 | [2] -0.01 | [4] 0.028 | IRAK-1-4 Inhibitor I -0.052

TNFAIP1 (UniProt Q13829)
inactive: [8] -0.086 | [4] 0.044 | IRAK-1-4 Inhibitor I -0.013

TPD52 isoform 3 (UniProt P55327)
inactive: erlotinib -0.179 | [2] 0.007 | [4] -0.086 | [6] 0.076 | [7] 0.037 | IRAK-1-4 Inhibitor I 0.03

TMPO isoform 2 (UniProt P42167)
inactive: [1] -0.053 | [3] 0.044 | [8] 0.143 | [5] -0.121 | [6] 0.163 | [7] 0.038

TMEM19 (UniProt Q96HH6)
inactive: erlotinib -0.055 | [1] -0.05 | [2] -0.2 | [3] -0.013 | [4] -0.042 | [5] 0.01 | [6] -0.027 | [7] -0.018 | IRAK-1-4 Inhibitor I 0.006

TMEM50A (UniProt O95807)
inactive: [6] -0.262 | [7] -0.73

TNNC1 (UniProt P63316)
inactive: [8] 0.572

TMEM59 (UniProt Q9BXS4)
inactive: [4] -0.075 | IRAK-1-4 Inhibitor I 0.049

TPD52L2 isoform 3 (UniProt O43399)
inactive: erlotinib 0.008 | [2] -0.036 | [8] -0.028 | [4] -0.049 | IRAK-1-4 Inhibitor I 0.029

TMEM209 (UniProt Q96SK2)
inactive: erlotinib -0.021 | [2] 0.009 | [8] 0.288 | [4] -0.094 | IRAK-1-4 Inhibitor I 0.028

TMEM189 (UniProt A5PLL7)
inactive: erlotinib -0.11 | [2] 0.033 | [8] -0.029 | [4] 0.057 | [6] -0.019 | [7] 0.042 | IRAK-1-4 Inhibitor I -0.026

TMEM273 isoform 2 (UniProt Q5T292)
inactive: erlotinib 0.024 | [2] 0.077 | [8] -0.144 | [4] -0.112 | IRAK-1-4 Inhibitor I 0.033

TMEM268 isoform 3 (UniProt Q5VZI3)
inactive: [4] 0.031 | [6] -0.092 | [7] -0.006 | IRAK-1-4 Inhibitor I -0.24

TMEM242 (UniProt Q9NWH2)
inactive: [1] -0.094 | [3] -0.102 | [8] -0.022 | [4] -0.025 | [5] 0.188 | [6] -0.036 | [7] 0.001 | IRAK-1-4 Inhibitor I -0.084

TMEM256 (UniProt Q8N2U0)
inactive: [1] 0.256 | [3] -0.128 | [5] 0.156 | [6] 0.264 | [7] -0.017

TPT1 (UniProt E9PJF7)
inactive: erlotinib 0.177 | [2] 0.091 | [8] -0.702

TMEM208 (UniProt Q9BTX3)
inactive: erlotinib 0.03 | [2] -0.216 | [8] 0.044 | [4] -0.132 | [6] -0.024 | [7] -0.076 | IRAK-1-4 Inhibitor I 0.018

TMSB4X (UniProt P62328)
inactive: erlotinib 0.079 | [2] 0.084 | [8] -0.031 | [4] 0.002 | [6] 0.018 | [7] 0.085 | IRAK-1-4 Inhibitor I -0.083
